These results are taken from doi:10.1101/672824.

This test has as its target T1, wild-type TWIST1 BiFC fusions (TWIST1-CC155 and TWIST1-VN173) (mouse) (UniProt P26687).
T1 sequence: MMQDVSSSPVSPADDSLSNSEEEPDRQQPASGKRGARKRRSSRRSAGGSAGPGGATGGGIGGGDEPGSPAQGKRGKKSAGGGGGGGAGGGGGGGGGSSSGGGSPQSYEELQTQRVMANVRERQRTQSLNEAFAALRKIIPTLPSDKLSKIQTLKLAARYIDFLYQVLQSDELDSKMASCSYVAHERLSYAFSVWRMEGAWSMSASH
Kind of test: split reporter.

No constants are given. Whether binding was seen depends on the method and setting. Binding seen in cells or lysates may run through a third protein. A result given as binding can be weak or reduced; the word gives no strength. Where a sequence is shown, tags or fusion partners need not be part of it.

In the case of “TWIST1 T121E; S123E-CC155 (phospho-mimetic double mutant) (mouse)”, the binding entry is reported as “binds”.
Under “TWIST1 lacking the N-terminus, CC155 fusion (mouse) (domain or fragment)” stands “binds”.
